Results deposited as PubChem BioAssay AID1259308 (NCATS, 2017)
Shown is an unselected part of about 59,000 deposited reagents. About 1,510 of them (2.6%) were called active. 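Calls use total luciferase alone and ignore viability, so some active siRNAs may act by altering cell number.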 Reagents against one gene are numbered here. Further read-outs or replicates are left out here.

- Test: 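Knock-downs that increase output of a recombinant reporter protein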 (primary screen)
- Cell system: human HEK293 embryonic kidney cells stably expressing firefly luciferase (HEK-CMV-Luc2-Hygro)
- Reagents: single siRNA against human genes, 0.8 pmol siRNA per well
- Duration: 72 h
- Read-out: 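Reporter luminescence and viable-cell signal on separate replicate plates, given as percent of non-targeting control and median/MAD z-scores, plus per-cell luciferase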
- Reading the numbers: total luciferase, z-score: higher = more reporter protein produced
- Hit rule: 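Active when the median/MAD z-score for overall luciferase is greater than 3; a gene was taken forward for validation with new siRNAs if at least two of its three siRNAs passed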
- Calls: active = raised luciferase; inactive = no rise

IL15RA #1
- total luciferase, z-score: 0.246
- outcome: inactive

IL15RA #2
- total luciferase, z-score: 3.38
- outcome: active

IL15RA #3
- total luciferase, z-score: -0.395
- outcome: inactive

ZNF628 #1
- total luciferase, z-score: 0.654
- outcome: inactive

ZNF628 #2
- total luciferase, z-score: 1.21
- outcome: inactive

ZNF628 #3
- total luciferase, z-score: 2
- outcome: inactive

COL26A1 #1
- total luciferase, z-score: 0.447
- outcome: inactive

COL26A1 #2
- total luciferase, z-score: 0.994
- outcome: inactive

COL26A1 #3
- total luciferase, z-score: -0.382
- outcome: inactive

AQP3 #1
- total luciferase, z-score: 0.746
- outcome: inactive

AQP3 #2
- total luciferase, z-score: -0.467
- outcome: inactive

AQP3 #3
- total luciferase, z-score: 2.94
- outcome: inactive

NAT1 #1
- total luciferase, z-score: -0.546
- outcome: inactive

NAT1 #2
- total luciferase, z-score: -1.52
- outcome: inactive

NAT1 #3
- total luciferase, z-score: 2.95
- outcome: inactive

Ordered by “total luciferase, z-score” (highest first): 2 of the entries above
AQP3 #1
- total luciferase, z-score: 0.746
- outcome: inactive

COL26A1 #3
- total luciferase, z-score: -0.382
- outcome: inactive

The list goes on:
PIRT #1
- total luciferase, z-score: 1.13
- outcome: inactive

PIRT #2
- total luciferase, z-score: -0.829
- outcome: inactive

PIRT #3
- total luciferase, z-score: 0.579
- outcome: inactive

ZNRF3 #1
- total luciferase, z-score: -0.0228
- outcome: inactive

ZNRF3 #2
- total luciferase, z-score: 0.149
- outcome: inactive

ZNRF3 #3
- total luciferase, z-score: 1.74
- outcome: inactive

DKK3 #1
- total luciferase, z-score: 0.841
- outcome: inactive

DKK3 #2
- total luciferase, z-score: -2.59
- outcome: inactive

DKK3 #3
- total luciferase, z-score: -0.153
- outcome: inactive

KCTD16 #1
- total luciferase, z-score: -0.0691
- outcome: inactive

KCTD16 #2
- total luciferase, z-score: 0.175
- outcome: inactive

KCTD16 #3
- total luciferase, z-score: 0.872
- outcome: inactive

TMEM208 #1
- total luciferase, z-score: -1.29
- outcome: inactive

TMEM208 #2
- total luciferase, z-score: 0.00249
- outcome: inactive

TMEM208 #3
- total luciferase, z-score: -0.0601
- outcome: inactive

FGL1 #1
- total luciferase, z-score: 0.143
- outcome: inactive

FGL1 #2
- total luciferase, z-score: 0.178
- outcome: inactive

FGL1 #3
- total luciferase, z-score: -0.883
- outcome: inactive
